The test concerns B6C3F1 mice, B16 melanoma ip, median survival T/C. Put plainly: NCI In Vivo Anticancer Drug Screen. Data for tumor model B16 Melanoma (intraperitoneal) in B6C3F1 mice. The conditions noted are these: T/C endpoint: median survival time, higher T/C = longer survival. In outline:
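Tumor-bearing mice received test compound; a separate group got vehicle only. Survival was then compared, with results reported as treated over control.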

Setting [1] is: dose: 100.0 mg/kg/injection, schedule: Q01DX009 (ip), vehicle: saline.
Where [2] appears, read: dose: 200.0 mg/kg/injection, schedule: Q01DX009 (ip), vehicle: saline.
Where [3] appears, read: dose: 200.0 mg/kg/injection, schedule: Q01DX009 (oral), vehicle: saline.
Setting [4] is: dose: 400.0 mg/kg/injection, schedule: Q01DX009 (ip), vehicle: saline.
Where [5] appears, read: dose: 100.0 mg/kg/injection, schedule: Q01DX009 (ip), vehicle: saline with Tween-80.
Where [6] appears, read: dose: 200.0 mg/kg/injection, schedule: Q01DX009 (ip), vehicle: saline with Tween-80.
[7] abbreviates: dose: 400.0 mg/kg/injection, schedule: Q01DX009 (ip), vehicle: saline with Tween-80.
Where [8] appears, read: dose: 2.5 mg/kg/injection, schedule: Q01DX009 (ip), vehicle: water.
The mark [9] stands for this setting: dose: 5.0 mg/kg/injection, schedule: Q01DX009 (ip), vehicle: water.
[10] abbreviates: dose: 200.0 mg/kg/injection, schedule: Q01DX009 (ip), vehicle: Klucel (hydroxypropylcellulose) (HPC).

The structures appear in SMILES notation. The list shows only some results of the screen, not a fair sample: it gathers tests that were run many times, whatever their T/C, doses with no T/C, and many T/C values between a quarter and a half above the control. Other doses and runs of a compound stand elsewhere. T/C: endpoint of the treated group in % of that of the vehicle group. Some doses have a count of surviving animals in place of a T/C: the source holds a T/C of zero for them, seemingly a mark for toxic or unscored doses. Some doses without a T/C left all or most animals alive at the check, yet need not have been tolerated: survival well below the control is almost never listed, so the zero probably covers shortened survival too. Survivors were counted at the toxicity check, usually on the fifth day, unless a day is given; later deaths do not show. Schedules are NCI's codes, read here as Q, the interval in days (D) or hours (H), X, the number of doses. Additions like (4×) say how often a value occurs here. Some entries hold several experiments; their values stand side by side, smallest first. Where survival is the endpoint, this PubChem deposit counts one and a half times the control or more as active, and values a quarter to a half above the control carry no call in these data; other NCI protocols may use other cut-offs. Some T/C values are followed by the survivors on the day toxicity was checked, most often the fifth; without a count, all were alive then.

For the compound `Cn1cc(NC(=O)c2cc(NC(=O)c3cc(NC=O)cn3C)cn2C)cc1C(=O)NCCC(=N)N`, the T/C is 145 % of control (dose: 12.5 mg/kg/injection, schedule: Q01DX009 (ip), vehicle: water, evaluated on day 52); 97 and 105 % of control (dose: 12.5 mg/kg/injection, schedule: Q01DX009 (ip), vehicle: water, evaluated on day 60); 125 % of control (dose: 25.0 mg/kg/injection, schedule: Q01DX009 (ip), vehicle: water, evaluated on day 52); 101 [9 of 10 alive], 105, 106 % of control (dose: 25.0 mg/kg/injection, schedule: Q01DX009 (ip), vehicle: water, evaluated on day 60); 129 % of control (dose: 50.0 mg/kg/injection, schedule: Q01DX009 (ip), vehicle: water, evaluated on day 52); 89 (2×) and 101 % of control (dose: 50.0 mg/kg/injection, schedule: Q01DX009 (ip), vehicle: water, evaluated on day 60). Moreover, the survivor count by setting is: (dose: 100.0 mg/kg/injection, schedule: Q01DX009 (ip), vehicle: water) 10 of 10 (2×); (dose: 200.0 mg/kg/injection, schedule: Q01DX009 (ip), vehicle: water) 0 of 10.
On to `O=NN(CCF)C(=O)NC1CCCCC1`, for which the survivor count (dose: 25.0 mg/kg/injection, schedule: Q01DX009 (ip), vehicle: Klucel (hydroxypropylcellulose) (HPC)) is listed as 6 of 10; the survivor count (dose: 50.0 mg/kg/injection, schedule: Q01DX009 (ip), vehicle: Klucel (hydroxypropylcellulose) (HPC)) is on record as 7 of 10; the survivor count (dose: 200.0 mg/kg/injection, schedule: Q01DX001 (ip), vehicle: Klucel (hydroxypropylcellulose) (HPC)) is recorded as 2 of 10.
For `O=C1N[C@@H]([C@H]2CC[C@H](Cl)CN2)C(=O)N[C@H]1[C@H]1CC[C@H](Cl)CN1`, the T/C is 129 % of control (dose: 0.5 mg/kg/injection, schedule: Q01DX009 (ip), vehicle: saline); 128 % of control (dose: 1.0 mg/kg/injection, schedule: Q01DX009 (ip), vehicle: saline); 146 % of control (dose: 2.0 mg/kg/injection, schedule: Q01DX005 (ip), vehicle: saline); 141 % of control (dose: 2.0 mg/kg/injection, schedule: Q01DX009 (ip), vehicle: saline). In addition, the survivor count runs as follows: (dose: 4.0 mg/kg/injection, schedule: Q01DX009 (ip), vehicle: saline) 10 of 10; (dose: 8.0 mg/kg/injection, schedule: Q01DX005 (oral), vehicle: saline) 10 of 10; (dose: 8.0 mg/kg/injection, schedule: Q04DX003 (ip), vehicle: saline) 10 of 10.
With `N#C[C@H](OC1OC(COC2OC(CO)C(O)C(O)C2O)C(O)C(O)C1O)c1ccccc1` (some centres not stated), the T/C was 89, 94, 96, 112 % of control (dose: 25.0 mg/kg/injection, schedule: Q01DX009 (ip), vehicle: saline); 87, 104, 105, 122 % of control (dose: 50.0 mg/kg/injection, schedule: Q01DX009 (ip), vehicle: saline); 98 [9 of 10 alive], 102, 127, 150 % of control under setting [1]; 98, 99, 104, 112 % of control (dose: 100.0 mg/kg/injection, schedule: Q01DX009 (oral), vehicle: saline); 90, 105, 106, 123 % of control [9 of 10 alive] under setting [2]; 97 [8 of 10 alive], 100 [8 of 10 alive], 122 % of control under setting [3]. In addition, the T/C runs as follows: under setting [4], 90, 94, 103 [7 of 10 alive], 126 % of control; (dose: 800.0 mg/kg/injection, schedule: Q01DX009 (ip), vehicle: saline) 90, 93 [8 of 10 alive], 101, 102 % of control. For the same compound, the survivor count by setting is: under setting [3], 5 of 10; (dose: 400.0 mg/kg/injection, schedule: Q01DX009 (oral), vehicle: saline) 1 of 10, 2 of 10, 3 of 10; (dose: 800.0 mg/kg/injection, schedule: Q01DX009 (oral), vehicle: saline) 0 of 10; (dose: 1600.0 mg/kg/injection, schedule: Q01DX009 (oral), vehicle: saline) 0 of 10; (dose: 3200.0 mg/kg/injection, schedule: Q01DX009 (oral), vehicle: saline) 0 of 10.
With `NC(CS)C(=O)O` (configuration not stated), the T/C under setting [2] is 146 % of control.
On to `CN(C)CC(=O)c1ccc(O)c(O)c1`, for which the survivor count under setting [1] is 6 of 10.
As to `O=C1c2ccccc2C(Cl)(c2ccc(Cl)cc2)c2ccc(Cl)cc21` (configuration not stated), the survivor count runs as follows: (dose: 12.5 mg/kg/injection, schedule: Q01DX009 (ip), vehicle: saline with Tween-80) 4 of 10; under setting [6], 7 of 10; under setting [7], 7 of 10. In addition, under setting [5], the T/C was 134 % of control.
`CN(C)[C@@H]1C(=O)C(C(N)=O)=C(O)[C@@]2(O)C(=O)C3=C(O)c4c(O)ccc(Cl)c4[C@@](C)(O)[C@H]3C[C@@H]12`: the survivor count by setting is: under setting [4], 2 of 10; (dose: 400.0 mg/kg/injection, schedule: Q01DX009 (ip), vehicle: water) 4 of 10.
Take `CC(=O)O[C@H]1C(=O)[C@@]2(C)C(C(OC(=O)c3ccccc3)[C@]3(O)C[C@H](OC(=O)C(OC(=O)CCCC(=O)NCCCN(C)C)C(NC(=O)c4ccccc4)c4ccccc4)C(C)=C1C3(C)C)C1(OC(C)=O)COC1C[C@@H]2O` (some centres not stated): the T/C by setting is: under setting [8], 131 % of control; under setting [9], 149 % of control.
`CCCCC(NC(=O)C(F)(F)F)C(=O)O` (configuration not stated): the survivor count is, setting by setting: under setting [5], 10 of 10; under setting [6], 10 of 10; under setting [7], 10 of 10.
Turning to `CC(=O)O[C@H]1C(=O)[C@@]2(C)C(C(OC(=O)c3ccccc3)[C@]3(O)CC(OC(=O)[C@H](OC(=O)CCC(=O)O)C(NC(=O)c4ccccc4)c4ccccc4)C(C)=C1C3(C)C)C1(OC(C)=O)COC1C[C@@H]2O` (some centres not stated), the T/C reads like this: under setting [8], 125 % of control; under setting [9], 131 % of control.
`C(=C\c1nc2ccccc2[nH]1)/c1nc2ccccc2[nH]1`: under setting [5], the survivor count is given as 10 of 10.
Regarding `CC1=CC(=NN=c2cc(C)n([O-])c(C)c2)C=C(C)[N+]1=O`, the T/C under setting [6] was 129 % of control. Also, the survivor count (dose: 200.0 mg/kg/injection, schedule: Q01DX009 (ip), vehicle: suspension in saline) is listed as 7 of 10; the survivor count under setting [7] is reported as 4 of 10; the survivor count (dose: 400.0 mg/kg/injection, schedule: Q01DX009 (ip), vehicle: suspension in saline) is 0 of 10.
Regarding `O=NNc1ccc(Cl)cn1`, the T/C by setting is: (dose: 3.12 mg/kg/injection, schedule: Q01DX009 (ip), vehicle: water) 134 % of control; (dose: 3.13 mg/kg/injection, schedule: Q01DX009 (ip), vehicle: water) 128 % of control; (dose: 6.25 mg/kg/injection, schedule: Q01DX009 (ip), vehicle: water) 142 % of control (2×); (dose: 12.5 mg/kg/injection, schedule: Q01DX009 (ip), vehicle: water) 147 % of control. Besides, the survivor count (dose: 25.0 mg/kg/injection, schedule: Q01DX009 (ip), vehicle: water) is 8 of 10 and 10 of 10.
Turning to `N#CC(C#N)=NNc1ccc2cn[nH]c2c1`, the survivor count under setting [10] was 8 of 10.
On to `CCCCCNc1ncnc2c(C)[nH]nc12`, for which the survivor count by setting is: under setting [10], 7 of 10; (dose: 400.0 mg/kg/injection, schedule: Q01DX009 (ip), vehicle: Klucel (hydroxypropylcellulose) (HPC)) 0 of 10.
On to `COc1cc(C(C)(C)C)cc(OC)c1C(O)(c1c(OC)cc(C(C)(C)C)cc1OC)c1c(OC)cc(C(C)(C)C)cc1OC`, for which the T/C (dose: 50.0 mg/kg/injection, schedule: Q01DX009 (ip), vehicle: saline with Tween-80) was 126 % of control. The survivor count was 10 of 10 under setting [5]; 5 of 10 and 10 of 10 under setting [6].

The values are drawn from PubChem BioAssay AID200 (DTP/NCI, 2004).
